Here are results for one molecule from publication PMC3610633.

The test addresses T1, TCP4 (A. thaliana) (UniProt Q8LPR5).
T1 sequence: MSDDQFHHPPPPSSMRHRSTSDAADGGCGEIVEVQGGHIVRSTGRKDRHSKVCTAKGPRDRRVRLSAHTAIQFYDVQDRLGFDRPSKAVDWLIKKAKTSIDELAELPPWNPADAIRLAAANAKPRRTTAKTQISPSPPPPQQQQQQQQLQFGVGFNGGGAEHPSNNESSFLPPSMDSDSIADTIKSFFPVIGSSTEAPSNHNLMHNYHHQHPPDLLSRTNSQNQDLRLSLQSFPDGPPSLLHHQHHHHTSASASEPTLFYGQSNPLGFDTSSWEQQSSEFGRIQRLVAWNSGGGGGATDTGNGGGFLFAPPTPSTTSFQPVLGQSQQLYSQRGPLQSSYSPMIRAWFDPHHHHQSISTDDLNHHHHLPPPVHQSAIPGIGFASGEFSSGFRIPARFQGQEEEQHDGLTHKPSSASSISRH
The experiment in a line: two-hybrid; yeast two-hybrid on selective medium (Leu-, Trp-, His-) with 60 mM 3-amino 1,2,4-triazole; repeated four times.

No constants are given. Whether binding was seen depends on the method and setting. Some entries that bind do so weakly or less than the wild type.

B1: MYB33 (protein, UniProt Q8W1W6 1-520)
chain: MSYTSTDSDHNESPAADDNGSDCRSRWDGHALKKGPWSSAEDDILIDYVNKHGEGNWNAVQKHTSLFRCGKSCRLRWANHLRPNLKKGAFSQEEEQLIVELHAKMGNRWARMAAHLPGRTDNEIKNYWNTRIKRRQRAGLPLYPPEMHVEALEWSQEYAKSRVMGEDRRHQDFLQLGSCESNVFFDTLNFTDMVPGTFDLADMTAYKNMGNCASSPRYENFMTPTIPSSKRLWESELLYPGCSSTIKQEFSSPEQFRNTSPQTISKTCSFSVPCDVEHPLYGNRHSPVMIPDSHTPTDGIVPYSKPLYGAVKLELPSFQYSETTFDQWKKSSSPPHSDLLDPFDTYIQSPPPPTGGEESDLYSNFDTGLLDMLLLEAKIRNNSTKNNLYRSCASTIPSADLGQVTVSQTKSEEFDNSLKSFLVHSEMSTQNADETPPRQREKKRKPLLDITRPDVLLASSWLDHGLGIVKETGSMSDALAVLLGDDIGNDYMNMSVGASSGVGSCSWSNMPPVCQMTELP
Take B1: the binding result was “binds”.
